This note sets out measurements from paper PMC6543673.

For at least one entry, the source does not settle the construct or the ends of the probe. Negatives hold for the conditions tested.

For this data set, the system named is GST-MdFLP (FOUR LIPS, R2R3-MYB). In words: EMSA. To be noted: Not stated, EMSA per Xie et al. and Thermo Scientific kit instructions, biotin-labeled probes, recombinant protein, protein details: GST (pGEX4T-1), label: biotin.
Setting [1] is: outcompeted by 10- and 20-fold unlabeled probe.

Consider “GCTGTGGCCGCTGCCGGAGCCGGGGCGGAAGATGACAGAG (double strand) [MdPIN3 promoter probe]”, for which the binding result under setting [1] is “binds”.
Consider “GCTGTGGCCGCTGCCGGTGCCGGGGCGGAAGATGACAGAG (double strand) [MdPIN3 mutant probe]”, for which the binding result is listed as “no binding”.
For the sequence “TTCTGAGACCCGAAAAGCCGAGTGTGTTGGGGACTGTAAG (double strand) [MdPIN10 promoter probe]”, the binding result under setting [1] is given as “binds”.
